Values from PubChem BioAssay AID1224828 (NIAID, 2016)

Assay: 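Regulators linking TLR4 signalling to p65 nuclear translocation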 (primary screen)
Cell system: mouse RAW264.7 G9 macrophage reporter cells (GFP-p65, Tnf promoter-mCherry)
Reagents: siRNA pool against mouse genes, 100 nM
Timing: 2 days siRNA transfection, then 40 min LPS before fixation
Conditions: LPS (Salmonella minnesota R595) at 10 ng/ml
Detection: 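Imaged p65 nuclear translocation ratio, normalised to the plate median, converted to robust z-scores and averaged across two replicates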
Direction: p65 translocation robust z-score: higher = more nuclear NF-kappaB p65 after LPS than the plate median; nuclear/cytoplasmic p65 ratio: higher = more nuclear NF-kappaB p65
Call rule: 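Called active when z exceeds 3.3 or falls under -1.56 (median of Tlr4 controls), giving activity score of at least 50; no calls for control wells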
Calls: active = hit (p65 shift raised or lowered); inactive = no clear change
Shown is an unselected part of about 17,000 reagents. Of all reagents, 762 (4.5%) were called active. 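Active calls include both raised and lowered p65 entry, mostly lowered; wells with fewer than 50 cells lack a z-score.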 The raw values are shown without normalisation. Reagent sequences are not shown.

| target | PubChem SID | p65 translocation robust z-score | nuclear/cytoplasmic p65 ratio, rep 1 | nuclear/cytoplasmic p65 ratio, rep 2 | low cell count flag | activity call |
| --- | --- | --- | --- | --- | --- | --- |
| Olfml2b (olfactomedin-like 2B) | SID315481221 | -0.04 | 1.36 | 1.25 | enough cells to score | inactive |
| Gtf2e2 | SID315473431 | 0.7 | 1.43 | 1.55 | enough cells to score | inactive |
| Nkx2-4 (NK2 homeobox 4) | SID315478650 | -1.03 | 1.56 | 1.38 | enough cells to score | inactive |
| Khsrp (KH-type splicing regulatory protein) | SID315467608 | 0.42 | 1.51 | 1.46 | enough cells to score | inactive |
| Clec2e (C-type lectin domain family 2, member e) | SID315478986 | -0.05 | 1.62 | 1.73 | enough cells to score | inactive |
| Pmaip1 (phorbol-12-myristate-13-acetate-induced protein 1) | SID315471911 | 1.24 | 1.45 | 1.36 | enough cells to score | inactive |
| Cdkn2b (cyclin dependent kinase inhibitor 2B) | SID315465917 | 0.32 | 1.81 | 1.37 | enough cells to score | inactive |
| Kcnj11 | SID315467578 | 0.59 | 1.52 | 1.49 | enough cells to score | inactive |
| Cnbp (cellular nucleic acid binding protein) | SID315466024 | -0.18 | 1.34 | 1.36 | enough cells to score | inactive |
| Pter (phosphotriesterase related) | SID315468768 | – | 1.23 | 1.13 | fewer than 50 cells per well; well left out of scoring | inactive |
| Mup2 (major urinary protein 2) | SID315468034 | 0.89 | 2.06 | 1.61 | enough cells to score | inactive |
| Tuba1b (tubulin, alpha 1B) | SID315469871 | -0.93 | 1.39 | 1.36 | enough cells to score | inactive |
| Diaph2 (diaphanous related formin 2) | SID315471143 | 0.73 | 1.58 | 1.47 | enough cells to score | inactive |
| Tubd1 (tubulin, delta 1) | SID315471526 | -0.72 | 1.5 | 1.32 | enough cells to score | inactive |
| Or2y10 (olfactory receptor family 2 subfamily Y member 10) | SID315481951 | – | 1.73 | 1.46 | fewer than 50 cells per well; well left out of scoring | inactive |
| Nucb1 (nucleobindin 1) | SID315468269 | 0.14 | 1.5 | 1.4 | enough cells to score | inactive |
| Snx30 (sorting nexin family member 30) | SID315477578 | – | 1.13 | 1.47 | fewer than 50 cells per well; well left out of scoring | inactive |
| Zfp39 (zinc finger protein 39) | SID315470116 | 1.29 | 1.61 | 1.38 | enough cells to score | inactive |
| Kdm4c (lysine (K)-specific demethylase 4C) | SID315475384 | -0.42 | 1.57 | 1.3 | enough cells to score | inactive |
| Stat1 (signal transducer and activator of transcription 1) | SID315469483 | -0.85 | 1.46 | 1.4 | enough cells to score | inactive |
| Epb41l4b (erythrocyte membrane protein band 4.1 like 4b) | SID315471201 | – | 1.73 | 0.728 | fewer than 50 cells per well; well left out of scoring | inactive |
| Xkr6 (XK related 6) | SID315478244 | 0.24 | 1.63 | 1.87 | enough cells to score | inactive |
| Dock8 (dedicator of cytokinesis 8) | SID315475241 | – | 1.18 | 1.37 | fewer than 50 cells per well; well left out of scoring | inactive |
| Dock8 (dedicator of cytokinesis 8) | SID315475242 | -0.35 | 1.32 | 1.43 | enough cells to score | inactive |
| Rit1 (Ras-like without CAAX 1) | SID315468980 | -0.89 | 1.39 | 1.39 | enough cells to score | inactive |
| Xirp1 (xin actin-binding repeat containing 1) | SID315470057 | -0.12 | 1.58 | 1.76 | enough cells to score | inactive |
| Cyp7a1 (cytochrome P450, family 7, subfamily a, polypeptide 1) | SID315466251 | -0.78 | 1.49 | 1.62 | enough cells to score | inactive |
| Casp14 (caspase 14) | SID315465769 | -0.68 | 1.51 | 1.52 | enough cells to score | inactive |
| Pkn2 (protein kinase N2) | SID315476826 | 0.36 | 1.73 | 1.43 | enough cells to score | inactive |
| Sh3glb1 (SH3-domain GRB2-like B1 (endophilin)) | SID315471289 | 0.49 | 1.56 | 1.23 | enough cells to score | inactive |
| Rad9a (RAD9 checkpoint clamp component A) | SID315468881 | 1.53 | 1.84 | 1.63 | enough cells to score | inactive |
| Coq3 (coenzyme Q3 methyltransferase) | SID315478756 | 0.94 | 1.81 | 1.83 | enough cells to score | inactive |
| F13b (coagulation factor XIII, beta subunit) | SID315466599 | -0.86 | 1.36 | 1.25 | enough cells to score | inactive |
| Rps18 (ribosomal protein S18) | SID315469040 | 0.66 | 1.51 | 1.42 | enough cells to score | inactive |
| Prss29 (serine protease 29) | SID315477029 | -0.5 | 1.5 | 1.35 | enough cells to score | inactive |
| Gcm1 (glial cells missing homolog 1) | SID315466855 | -0.35 | 1.35 | 1.36 | enough cells to score | inactive |
| Mcm6 (minichromosome maintenance complex component 6) | SID315467864 | 1.59 | 1.65 | 1.55 | enough cells to score | inactive |

Part of the list above, limited to “nuclear/cytoplasmic p65 ratio, rep 1”:
Cdkn2b (cyclin dependent kinase inhibitor 2B) [SID315465917]	1.81
Kcnj11 [SID315467578]	1.52
Cnbp (cellular nucleic acid binding protein) [SID315466024]	1.34
Pter (phosphotriesterase related) [SID315468768]	1.23

The list goes on.
| target | PubChem SID | p65 translocation robust z-score | nuclear/cytoplasmic p65 ratio, rep 1 | nuclear/cytoplasmic p65 ratio, rep 2 | low cell count flag | activity call |
| --- | --- | --- | --- | --- | --- | --- |
| Defb41 (defensin beta 41) | SID315475498 | – | 1.21 | 1.4 | fewer than 50 cells per well; well left out of scoring | inactive |
| Enpp3 (ectonucleotide pyrophosphatase/phosphodiesterase 3) | SID315477603 | -0.31 | 1.38 | 1.36 | enough cells to score | inactive |
| Dgki (diacylglycerol kinase, iota) | SID315481232 | -2.19 | 1.34 | 1.11 | enough cells to score | active |
| H2-Aa (histocompatibility 2, class II antigen A, alpha) | SID315467100 | 0.02 | 1.42 | 1.39 | enough cells to score | inactive |
| Abhd17a (abhydrolase domain containing 17A) | SID315477983 | -1.27 | 1.26 | 1.58 | enough cells to score | inactive |
| Aldh1b1 (aldehyde dehydrogenase 1 family, member B1) | SID315474570 | -0.17 | 1.6 | 1.58 | enough cells to score | inactive |
| Knstrn (kinetochore-localized astrin/SPAG5 binding) | SID315470923 | 0.33 | 1.6 | 1.61 | enough cells to score | inactive |
| Acadvl (acyl-Coenzyme A dehydrogenase, very long chain) | SID315465240 | -0.25 | 1.57 | 1.59 | enough cells to score | inactive |
| Spp2 (secreted phosphoprotein 2) | SID315475111 | 2.01 | 1.7 | 1.45 | enough cells to score | inactive |
| Tmem91 (transmembrane protein 91) | SID315481260 | -0.71 | 1.31 | 1.41 | enough cells to score | inactive |
| Gadd45b (growth arrest and DNA-damage-inducible 45 beta) | SID315468051 | -0.09 | 1.27 | 1.5 | enough cells to score | inactive |
| Rtn4ip1 (reticulon 4 interacting protein 1) | SID315477201 | -1.23 | 1.21 | 1.12 | enough cells to score | inactive |
| Ndufb8 (NADH:ubiquinone oxidoreductase subunit B8) | SID315472932 | -0.13 | 1.74 | 1.59 | enough cells to score | inactive |
| Dapp1 (dual adaptor for phosphotyrosine and 3-phosphoinositides 1) | SID315470361 | -0.61 | 1.53 | 1.41 | enough cells to score | inactive |
| Xpa (xeroderma pigmentosum, complementation group A) | SID315470064 | -1.91 | 1.26 | 1.37 | enough cells to score | active |
| Ahcyl1 (S-adenosylhomocysteine hydrolase-like 1) | SID315478735 | 0.66 | 1.78 | 1.66 | enough cells to score | inactive |
| Eola1 (endothelium and lymphocyte associated ASCH domain 1) | SID315473585 | 1.53 | 1.72 | 1.66 | enough cells to score | inactive |
| Glis1 (GLIS family zinc finger 1) | SID315478792 | – | 1.27 | 1.25 | fewer than 50 cells per well; well left out of scoring | inactive |
| Pcdha3 (protocadherin alpha 3) | SID315477384 | 0 | 1.38 | 1.29 | enough cells to score | inactive |
| Ccnb2 (cyclin B2) | SID315465813 | 0.4 | 1.58 | 1.43 | enough cells to score | inactive |
| Hltf (helicase-like transcription factor) | SID315469327 | 1.19 | 1.7 | 1.75 | enough cells to score | inactive |
| Osgepl1 (O-sialoglycoprotein endopeptidase-like 1) | SID315474449 | – | 1.53 | 0 | fewer than 50 cells per well; well left out of scoring | inactive |
